Reference: PubChem BioAssay AID1259275 (Sanger Institute, 2017)

Test: 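Kinase and colorectal cancer genes needed for cancer cell survival, with or without drugs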 (primary screen)
Cell system: COLO320HSR human colorectal cancer cells
Reagent: siRNA pool against human genes
Conditions: anchor drug added one day after transfection: BYL719 at 1 µM, cetuximab at 5 µg/ml or trametinib at 10 nM; DMSO as vehicle arm
Measurement: 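Viability averaged over replicates as a fraction of the non-targeting pool, a robust z-score for knock-down alone, and synergy scores with BYL719 (1 µM), cetuximab (5 µg/ml) or trametinib (10 nM)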
Direction: robust z-score, siRNA alone: higher = more viable cells; strongly negative means essential; viability, knock-down alone (DMSO): higher = more viable cells; synergy score with BYL719 and synergy score with cetuximab: higher = stronger combined killing with drug
Rule for the call: 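Essential means the knock-down by itself gives a robust z-score lower than -3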
Calls: active = essential (siRNA alone); inactive = no change (siRNA alone)
This is an unselected part of 794 reagents tested. Of all reagents, 13 (1.6%) were called active. 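Calls mark knock-downs lethal by themselves, not drug synergy; drugs went in a day after transfection, with DMSO as vehicle.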 Unmarked entries are inactive. Viability is capped at 1. Further read-outs or replicates are left out here. Reagent sequences are not shown. The record does not give: the amount of reagent, the time to read-out.

| Target gene | robust z-score, siRNA alone | viability, knock-down alone (DMSO) (fraction of control) | synergy score with BYL719 | synergy score with cetuximab |
| --- | --- | --- | --- | --- |
| RFK (riboflavin kinase) | 0.726 | 1 | -0.0817 | -0.0636 |
| MAGI3 | 0.726 | 1 | -0.103 | -0.0893 |
| RIOK1 (RIO kinase 1) | -1.33 | 0.814 | -0.1 | -0.118 |
| STRADA (STE20 related adaptor alpha) | -1.29 | 0.818 | -0.00869 | -0.117 |
| PIK3CA | 0.51 | 0.981 | -0.169 | -0.107 |
| CDK8 (cyclin dependent kinase 8) | 0.726 | 1 | -0.169 | -0.0893 |
| ADK (adenosine kinase) | 0.726 | 1 | -0.239 | -0.0893 |
| ROCK2 (Rho associated coiled-coil containing protein kinase 2) | 0.666 | 0.995 | -0.102 | -0.0725 |
| ASPM (assembly factor for spindle microtubules) | -0.69 | 0.872 | -0.0531 | -0.206 |
| STK38L (serine/threonine kinase 38 like) | -0.121 | 0.923 | -0.0585 | 0.103 |
| CDKN1A (cyclin dependent kinase inhibitor 1A) | -0.266 | 0.91 | -0.143 | -0.0831 |
| TAF1 (TATA-box binding protein associated factor 1) | 0.726 | 1 | 0.0228 | -0.0893 |
| PHKG2 (phosphorylase kinase catalytic subunit gamma 2) | 0.726 | 1 | -0.171 | 0.0118 |
| STRADB (STE20 related adaptor beta) | 0.726 | 1 | -0.228 | -0.0893 |
| CDKL3 (cyclin dependent kinase like 3) | 0.726 | 1 | -0.185 | -0.0893 |
| JAK3 (Janus kinase 3) | 0.726 | 1 | 0.0703 | -0.0893 |
| TP53RK (TP53 regulating kinase) | 0.726 | 1 | -0.061 | -0.00516 |
| WEE1 (WEE1 G2 checkpoint kinase) | -3.38 (active) | 0.629 | -0.00504 | -0.0251 |
| ERBB3 (erb-b2 receptor tyrosine kinase 3) | 0.583 | 0.987 | -0.024 | -0.101 |
| UCK1 (uridine-cytidine kinase 1) | 0.726 | 1 | -0.158 | -0.0893 |
| ACVR1 (activin A receptor type 1) | -0.34 | 0.904 | -0.0758 | -0.0643 |
| PIP5K1C (phosphatidylinositol-4-phosphate 5-kinase type 1 gamma) | 0.726 | 1 | -0.111 | 0.0214 |
| PIP5K1B (phosphatidylinositol-4-phosphate 5-kinase type 1 beta) | 0.00741 | 0.935 | 0.000352 | -0.0457 |
| WT1 (WT1 transcription factor) | 0.473 | 0.977 | -0.258 | 0.00498 |
| BCOR (BCL6 corepressor) | 0.726 | 1 | -0.021 | -0.00426 |
| PANK4 (pantothenate kinase 4 (inactive)) | 0.571 | 0.986 | 0.0219 | -0.102 |
| CDADC1 (cytidine and dCMP deaminase domain containing 1) | -0.196 | 0.917 | -0.118 | -0.163 |
| TGFBR3 (transforming growth factor beta receptor 3) | 0.726 | 1 | -0.0872 | 0.0155 |
| DTYMK (deoxythymidylate kinase) | 0.554 | 0.984 | 0.0118 | 0.0782 |
| THNSL1 (threonine synthase like 1) | 0.659 | 0.994 | -0.119 | -0.0949 |
| MAPK15 (mitogen-activated protein kinase 15) | -0.159 | 0.92 | -0.118 | -0.162 |
| ETNK2 (ethanolamine kinase 2) | -2.67 | 0.693 | -0.048 | -0.121 |
| KCNH2 (potassium voltage-gated channel subfamily H member 2) | -0.0323 | 0.932 | -0.153 | -0.123 |
| BUB1B (BUB1 mitotic checkpoint serine/threonine kinase B) | -1.66 | 0.785 | -0.0632 | -0.0393 |
| PFKFB3 (6-phosphofructo-2-kinase/fructose-2,6-biphosphatase 3) | 0.726 | 1 | 0.000839 | 0.032 |
| PRKAA2 (protein kinase AMP-activated catalytic subunit alpha 2) | 0.726 | 1 | -0.0897 | -0.0893 |
| SGK3 (serum/glucocorticoid regulated kinase family member 3) | -0.153 | 0.921 | -0.0757 | -0.0911 |
| PLK4 (polo like kinase 4) | -0.214 | 0.915 | -0.155 | -0.144 |
| RPS6KA3 (ribosomal protein S6 kinase A3) | 0.726 | 1 | -0.118 | -0.0893 |
| PTPRU (protein tyrosine phosphatase receptor type U) | -0.902 | 0.853 | 0.0274 | -0.116 |
| TPD52L3 (TPD52 like 3) | 0.726 | 1 | -0.132 | -0.0893 |
| SRC (SRC proto-oncogene, non-receptor tyrosine kinase) | 0.726 | 1 | -0.165 | -0.0893 |
| PDIK1L (PDLIM1 interacting kinase 1 like) | 0.726 | 1 | -0.084 | -0.0834 |
| TESK1 (testis associated actin remodelling kinase 1) | 0.726 | 1 | 0.0343 | -0.03 |
| NEK3 (NIMA related kinase 3) | -0.104 | 0.925 | 0.0061 | 0.0912 |
| NUP98 (nucleoporin 98 and 96 precursor) | -4.35 (active) | 0.542 | 0.0162 | -0.0912 |
| NADK (NAD kinase) | -1.38 | 0.81 | -0.241 | -0.263 |
| CALM1 (calmodulin 1) | 0.726 | 1 | -0.213 | -0.00181 |
| TGFBR1 (transforming growth factor beta receptor 1) | 0.726 | 1 | -0.259 | -0.0893 |
| STK36 (serine/threonine kinase 36) | 0.726 | 1 | -0.129 | -0.0893 |

Quoted from the listing for reference:
| Target gene | robust z-score, siRNA alone | viability, knock-down alone (DMSO) (fraction of control) | synergy score with BYL719 | synergy score with cetuximab |
| --- | --- | --- | --- | --- |
| TESK1 (testis associated actin remodelling kinase 1) | 0.726 | 1 | 0.0343 | -0.03 |
| NEK3 (NIMA related kinase 3) | -0.104 | 0.925 | 0.0061 | 0.0912 |
| NUP98 (nucleoporin 98 and 96 precursor) | -4.35 (active) | 0.542 | 0.0162 | -0.0912 |
| NADK (NAD kinase) | -1.38 | 0.81 | -0.241 | -0.263 |
